# Measured data: PubChem BioAssay AID1224830 (NIAID, 2016)
# Aim: 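Host factors that control LPS-induced TNF expression in human macrophages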 (primary screen)
# Cell system: human THP-1 monocytic leukaemia cells, TNF dual-luciferase reporter clone, PMA-differentiated to macrophage-like cells
# Reagent: siRNA pool against human genes, 50 nM
# Timing: LPS for 4 h, given about 3 days after siRNA transfection
# Challenge: bacterial LPS (TLR4 ligand), 10 ng/ml
# Measurement: 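TNF firefly reporter luminescence divided by renilla, normalised to the plate median, then turned into a robust z-score for each replicate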
# Direction: TNF reporter robust z-score: higher = stronger TNF reporter response to LPS
# Call rule: 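Each well counts as active if its z-score is over 2.8 or under -1.5; controls are left without a call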
# In all, the deposit lists about 18,000 reagents; this is an unselected part. Of all reagents, about 2,900 (16%) were called active. 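Calls are made per well; low scores hint the gene aids the LPS response, high scores that it dampens it.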 Repeated entries: four replicate wells of each siRNA pool. Reagent sequences are not shown.
gene,TNF reporter robust z-score,activity call
PCGF1,0.82,inactive
PCGF1,3.31,active
PCGF1,1.24,inactive
PCGF1,1.32,inactive
COPS2,-0.89,inactive
COPS2,-1.27,inactive
COPS2,-1.17,inactive
COPS2,-1.32,inactive
SYCP1,-0.02,inactive
SYCP1,-0.52,inactive
SYCP1,-0.23,inactive
SYCP1,0.86,inactive
PABPC1L2B,-0.01,inactive
PABPC1L2B,-0.99,inactive
PABPC1L2B,-0.25,inactive
F8A1,,inactive
ARHGEF39,-0.56,inactive
ARHGEF39,-0.23,inactive
ARHGEF39,-0.83,inactive
ARHGEF39,0.38,inactive
SH3BP4,0.81,inactive
SH3BP4,1.72,inactive
SH3BP4,-0.27,inactive
SH3BP4,1.38,inactive
NTMT1,1.6,inactive
NTMT1,1.36,inactive
NTMT1,2.2,inactive
NTMT1,2.49,inactive
MRPL32,-1.56,active
MRPL32,-0.39,inactive
MRPL32,-0.04,inactive
MRPL32,0.25,inactive
GRWD1,1.35,inactive
GRWD1,2.51,inactive
GRWD1,1.99,inactive
GRWD1,0.76,inactive
CHD5,1.97,inactive
CHD5,0.6,inactive
CHD5,4.55,active
CHD5,-2.35,active
EFTUD2,-1.26,inactive
EFTUD2,-1.28,inactive
EFTUD2,1.13,inactive
EFTUD2,-0.37,inactive
DYDC2,-0.82,inactive
DYDC2,0.95,inactive
DYDC2,0.56,inactive
DYDC2,-0.25,inactive
RAB6C,0.21,inactive
RAB6C,1.06,inactive
RAB6C,-0.3,inactive
RAB6C,0.61,inactive
RNF138,-0.45,inactive
RNF138,-0.57,inactive
RNF138,-0.21,inactive
RNF138,-0.28,inactive
MMP14,0.62,inactive
MMP14,0.72,inactive
MMP14,-0.19,inactive
MMP14,-0.06,inactive
CACNA2D2,-0.44,inactive
CACNA2D2,-0.66,inactive
CACNA2D2,-1,inactive
CACNA2D2,0.14,inactive
C8orf33,0.83,inactive
C8orf33,0.96,inactive
C8orf33,-0.58,inactive
C8orf33,-0.48,inactive
ASGR2,1.07,inactive
ASGR2,0.71,inactive
ASGR2,0.62,inactive
ASGR2,0.64,inactive
EPN1,-1,inactive
EPN1,-0.55,inactive
EPN1,-0.89,inactive
EPN1,-0.49,inactive
VIPAS39,-0.51,inactive
VIPAS39,-0.24,inactive
VIPAS39,-0.66,inactive
VIPAS39,1.19,inactive
KRTCAP3,-1.16,inactive
KRTCAP3,-0.33,inactive
KRTCAP3,-1.87,active
KRTCAP3,-1.63,active
ABCG5,-1.24,inactive
ABCG5,-0.92,inactive
ABCG5,-1.01,inactive
ABCG5,0.01,inactive
ACSM5,1.13,inactive
ACSM5,-0.99,inactive
ACSM5,-0.25,inactive
ACSM5,-0.17,inactive
SLN,0.15,inactive
SLN,0.63,inactive
SLN,0.88,inactive
SLN,0.42,inactive
CPD,0.66,inactive
CPD,0.45,inactive
CPD,0.08,inactive
CPD,0.5,inactive
MYO5C,0.41,inactive
MYO5C,0,inactive
MYO5C,-0.01,inactive
MYO5C,0.38,inactive
ZBTB45,-0.87,inactive
ZBTB45,-0.54,inactive
ZBTB45,-0.34,inactive
ZBTB45,0.13,inactive
RAP1A,-0.19,inactive
RAP1A,-1.5,inactive
RAP1A,-1.43,inactive
RAP1A,-1.02,inactive
IL24,1.05,inactive
IL24,0.69,inactive
IL24,1.91,inactive
IL24,0.57,inactive
CACUL1,1.13,inactive
CACUL1,1.08,inactive
CACUL1,1.52,inactive
CACUL1,-0.76,inactive
SMCP,-0.06,inactive
SMCP,0.26,inactive
SMCP,-0.08,inactive
SMCP,0.17,inactive
CST6,0.75,inactive
CST6,-0.03,inactive
CST6,0.17,inactive
CST6,0.27,inactive
UBA3,0.72,inactive
UBA3,-0.46,inactive
UBA3,-1.64,active
UBA3,1.7,inactive
DRC11,2.14,inactive
DRC11,-0.1,inactive
DRC11,0.32,inactive
DRC11,0.83,inactive
TMEM92,0.52,inactive
TMEM92,-0.17,inactive
TMEM92,0.33,inactive
TMEM92,0,inactive
